The values that follow come from PubChem BioAssay AID1347423 (Functional Genomics Laboratory (NCATS/FGL), 2020).

The whole screen tested about 52,000 sequences, of which about 210 (0.4%) were called active.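 The calls were made as follows: active = gene whose silencing raises cell survival under the drug, median off-target-corrected z-score across its silencing RNAs 2 or more; inactive = the rest.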 The list shows a part of the results.

A short description of the assay: Resistance to Poly (ADP-Ribose) Polymerase inhibitor: Gene Identification via Genome-wide siRNA Screen. Conditions: mouse BRCA2 R2336H ES cells, olaparib, CellTiter-Glo viability; hits give high values. A digest of the protocol:
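Genome-wide siRNA screen (3 siRNAs/gene, 20 nM) in mouse ES cells carrying hypomorphic BRCA2 R2336H; olaparib 500 nM added 48 h post-transfection, CellTiter-Glo viability 72 h later. Normalized to plate-median negative control; MAD z-scores, gene median, seed-adjusted.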
As for CCUUUUGAAACGUACAGCGTT against Admr, the z-score is inactive: 0.358. Under GGCCUGAACUUUUUAUUGATT against Olfr533 stands inactive: -0.108; under GGGAUAAUAAUGUUGAUUGTT against Mrc1, inactive: 2.08. For “GGGAAGAAAUAUGUUAGAUTT against 2610319K07Rik” the value was inactive: -0.818; for CGUGUAAGUUUUGAUUCUATT against Calr, inactive: 0.0672; for GCCUACAGCUCUUUACACATT against Gpr89, inactive: 0.356.

On to GGUGACAAAGGUGUUAGAATT against Itpkc, for which the z-score is inactive: 0.491. For “GGUUCUUGUGUUCAGAUGGTT against 6030422M02Rik” the value was inactive: -0.109; for GCUAAAAGGUAAGUACUUCTT against AB041803, inactive: 0.00857; for “GCUAAUUGCUCCGUACUCCTT against A930010I02”, inactive: 1.93. On to CGCUCAUUUAGACAUAGAGTT against Ass, for which the z-score was inactive: 0.391. For “GGGCUUUGAUCGACGGAUUTT against 4933402J24Rik” the value was inactive: 0.946. For GGAAGUUGGAAAGAACCUATT against Bcl2a1c the value was inactive: -0.0432. Under GGACCUGAAUAAGACUAUUTT against Lgmn stands inactive: 0.124; under GCAGCUAGGUAAUAGGAAUTT against Nsg2, inactive: 1.1. Take “GGUCGAUGCUUCGAAACCATT against 6820408C15Rik”: the z-score is inactive: -0.625. As for GGAACUGUGGAAGGAAUUCTT against Tbx6, the z-score is inactive: -0.974. For “GGCCUAGCAAGGGAUUUUATT against 2410030J07Rik” the value was inactive: 1.92; for “GGCAACAGAGCUGACCCUATT against F630111L10Rik”, inactive: -2.72. Regarding “GGACACUCAGAAGAAAACCTT against 6820443O06Rik”, the z-score is inactive: 0.321.

Take CCACAUCUUUGACGAGUACTT against Rgs16: the z-score was inactive: -1.51.

Regarding CGAUCCGAAUGGGUCGACUTT against Bola1, the z-score is inactive: 0.346. For GCAUAUAAUGUCUAACUCGTT against Eml4 the value was inactive: 0.136; for GAUCUAUCACCGGUACUGCTT against Gys1, inactive: 1.63. For GCCGGUCUAACUUUCCAAUTT against Ssbp3 the value was inactive: -0.948; for GCAAUUCUGCAAGUGAUUATT against Spata5l1, inactive: 0.0556. As for “CGCCUACAGCUCUAUCUUATT against 2700062C07Rik”, the z-score was inactive: 1.03. Under “GGAUACAUACUGGACAAAATT against 6720457D02Rik” stands inactive: -0.163; under “GGAAAAUGAGAGAUUACGATT against D530005L17Rik”, inactive: 1.01.

Take GGGUGCCUACUUGAUCCUUTT against Brp16: the z-score was inactive: 2.4. As to GAAUUCCAGCUUUUCCCUUTT against Klra22, the z-score was inactive: -0.76. For “GGUCCAGAUUGCUUAGAUGTT against 2310061J03Rik”, the z-score is inactive: 0.683. Under GGAUGAAAAGCUUAUUCGUTT against Ddx5 stands inactive: -2.31; under GCUUUAGUCAUUUGAACAUTT against Rap2c, inactive: 0.274. For GGAAGAUUUCGAUAAGCUCTT against Cacna1h the value was inactive: 0.147; for CCACUGAUCCUUUGACAGCTT against Zfy2, inactive: -0.349. For GGAGCUGUUUGACCAAAUCTT against Epb4.1l5 the value was inactive: -0.875. In the case of “GCUAACUUGCUCAUGCAAATT against 2310001N14Rik”, the z-score is inactive: 0.568.

Consider CCAUUUACCUCAUAGGACCTT against Crb3, for which the z-score is inactive: -1.45. For GGCGGAGUUCUCAAGACUUTT against BC036718 the value was inactive: -0.842; for GGAUGAGCAGAUGCUCCAATT against Mtmr7, inactive: -0.619; for GGAAGAAAAUCUUGAAGCATT against Ddx51, inactive: -1.54. For GGCCCUUCCCAAAGUAUUATT against Mup3 the value was inactive: 0.32; for “GGAUUAGCUGCAUGAAAGATT against 4930542N07Rik”, inactive: -1.03; for GGUCAUUCUGGCAUUAAUGTT against Clecsf13, inactive: 0.83. As to GGUGGAGCUGCUCAAGAUUTT against Fkbp2, the z-score was inactive: -1.61.

On to GGAUGUACGGAAGCGAUUCTT against Gmpr2, for which the z-score is inactive: 0.0645. In the case of “CCUUCUAGCCAAGACUGGATT against A330090H18”, the z-score was inactive: -1.23.

Regarding GCAACAUUCGAGCUGGAAATT against AL033314, the z-score is inactive: 2.14. As for GGUUACCUGUGAAAAUAGUTT against Zfp606, the z-score is inactive: 0.368. Under “GGGAAAUAAUGAUUGGUCUTT against D130064H19Rik” stands inactive: 2.21. Turning to GCAACUCGUACAAAAGGCGTT against Cnga1, the z-score is inactive: 0.114. GCUAAUAGCCUGCCUAAGGTT against Plekhj1: the z-score was inactive: -2.43. For “GGAAUAUUGUGCAUCAAAGTT against 4432409M07Rik” the value was inactive: -0.094; for GGUGGUUCAGUUCAAUCGUTT against Map2k1ip1, inactive: -0.16. Under GGAACUAUUGAGUUGUUGUTT against Pcdha5 stands inactive: 0.538; under GGUGGUGUCUUCUGUGCAATT against Cd3d, inactive: -1.11. For GGAAAUCAGUGAACAUCUUTT against Tshr the value was inactive: 0.237; for GGCUUGGUGUUUUGAUUAGTT against Lzf, inactive: 0.228; for GCGGAGAUCCUACAAUGUUTT against Gpatc2, inactive: -1.21.

As to “GCAGUGUGAUAAAAGAGGATT against F830020C16Rik”, the z-score was inactive: 0.644. Under CGGAUUCCUAAAAGUUAUATT against Appbp1 stands inactive: -0.151; under GAAUGCGAAGCCUUCCGCATT against Gfra4, inactive: 0.661. For GGAAAAGCAUUUUCAACGUTT against Lhfpl2 the value was inactive: 0.497; for GCACCGGGAUUUGGUGCAATT against Rbm21, inactive: -0.0364. Under “GGAAAAAUUGAAGUUGAUCTT against D230050A05” stands inactive: 1.45; under GGUGACUAUUAGAAGUAAATT against Gtf3c4, inactive: -1.04. For CCUAAACCCAUUCCAGUCUTT against Dpm3, the z-score is inactive: -1.18. Under “GAUAUUGCUCUCCAAUCUATT against 2310034C09Rik” stands inactive: -0.614; under “GGCAAGGACUCGAAGACUATT against 9630028B13Rik”, inactive: -0.811. Under GGGCAGUUCUCUUUGCCAATT against Gns stands inactive: 1.04; under CCAUUAAUAAAGCGUGGGUTT against Cacybp, inactive: 0.395. For GUUCAUUUGUCAUCACUGUTT against Prss2 the value was inactive: 0.38; for GGAAUAUUUGCUUCGACAGTT against AI839550, inactive: 1.38; for GGACAUUGUCACAUCAUUCTT against Slc2a6, inactive: -0.581. Regarding GGCAAUGUUUACAAGUUCCTT against Ralgps1, the z-score was inactive: -0.546.

Consider “GGCAUCAAGCACAAGAAAATT against 2610042O14Rik”, for which the z-score is inactive: -0.00446.

For CCCACCAGUAAGGAGUUCATT against Dido1, the z-score was inactive: 0.964.

Regarding GGUUGGCUUGGAAAUGGGATT against Nanos2, the z-score was inactive: 0.0901.

With GCACUAUCCAGGAGCAUUUTT against AI313915, the z-score is inactive: -0.571. Regarding GGAGGAAGUCGUCUUUGGATT against Olfr1377, the z-score was inactive: -0.0553. On to GCCUCUUGAUGUUAAAGUATT against Krt2-17, for which the z-score is inactive: -1.25. Regarding GGACUGUCCAAAAGAAAGGTT against Tnfrsf18, the z-score was inactive: -1.21. Regarding GGAAAACCAUGACAUCAUATT against Man2a2, the z-score was inactive: 1.1. Regarding CGCAGUUCAUCGCAUGAUUTT against Arhgef12, the z-score is inactive: 1.15. As for GCAACAAGUCUGGAGACAATT against Pbp, the z-score is inactive: 0.031. For GGAUUUAACAACGAGAGAATT against Rasgrf2 the value was inactive: 0.346.

For the sequence GCACAAGAUGUUCACACUATT against Siva, the z-score was inactive: -1.49.

As for GGUCAACGUGAAGACUUCCTT against Ly6a, the z-score is inactive: -1.02. Under GGAAAUUUGCCGGCCAAAUTT against BC030396 stands inactive: -1.11; under “GGUAGCAUGCUUUUGGUGCTT against 1300004G08Rik”, inactive: 1.2; under GGCAAGUCUGUGUGCAGAUTT against Olfr267, inactive: -2.91. For GCAGCCGCUUUAAUUAAAATT against Apaf1 the value was inactive: 0.843; for GGAAAAUCUCUUGGGACGATT against Myo6, inactive: 1.56. Under CCAGACCUACAAUGAGAUGTT against Gga1 stands inactive: -0.219; under GGAUUUGUGCAGGAAUGCCTT against Slc6a18, inactive: -0.366. As to CCAGAUGCUGACUUGAACATT against Dpep1, the z-score was inactive: 0.625. For GCAUCACAGAAACUGAGCATT against Pou6f2 the value was inactive: 0.867.

Turning to GGUCUAGGAAACCUUCAGCTT against Map17, the z-score is inactive: 0.302.

Consider GGCAGUAAUCAACAAAUAGTT against Lrrtm4, for which the z-score is inactive: -1.49. Under GGGCCUUCUUCCUAAAUUUTT against Mat2a stands inactive: 0.0628; under CCACUCCAACUAGUGUUAATT against Pcdha10, inactive: 0.294; under “GGUUUAUGAGCUCUACGCCTT against 5730466P16Rik”, inactive: -0.323. Under CCACACUAACUUGUAAUUUTT against Rasgrp1 stands inactive: -0.422.
